Experimental data published in PMC10476265, “Optimized LC-MS/MS Method for the Detection of ppCCK(21–44): A Surrogate to Monitor Human Cholecystokinin Secretion” (Journal of Proteome Research, 2023).

Experiment: ppCCK(21–44) in plasma of healthy volunteers after a standard mixed meal (Ensure), LC-MS/MS with ionKey
Type: in vivo, human
Conditions: EDTA plasma, mean (±SEM)

## [Pyr]-QPVPPADPAGSGLQRAEEAPRRQL-acid [ppCCK(21–44), N-terminal peptide fragment of proCCK, surrogate analyte for CCK secretion]
Healthy volunteers n = 9, 30 min after mixed liquid meal (237 mL Ensure plus)
  ppCCK(21–44) plasma concentration, peak: 5.9 pmol/L
Healthy volunteers n = 9, after overnight fast, just before mixed liquid meal
  ppCCK(21–44) plasma concentration, baseline: 1.5 pmol/L
